Measurements taken from patent publication US8039499B2, “Ester compound and its use” (Sumitomo Chemical Company, Limited, priority 2006, dated 2011).
Some entries share one result that the patent states for a list of compounds.

System: adult houseflies
Test: Test Example 1: housefly knock down, spray on polyethylene cup in test chamber
Type: in vivo
Settings: active ingredient concentration 0.025%, 0.5 ml sprayed, counted two minutes after, repeated twice

Row | Compound | knock down ratio of sample insects
1 | C#CCN1CC(=O)N(COC(=O)[C@@H]2[C@@H](/C=C(\C)C=NOC(C)C)C2(C)C)C1=O [present compound (5), 2,5-dioxo-3-(2-propynyl)imidazolidin-1-ylmethyl (1R)-trans-3-[(E)-3-isopropoxyimino-2-methyl-1-propenyl]-2,2-dimethylcyclopropanecarboxylate] | ≥ 70%
2 | C#CCN1CC(=O)N(COC(=O)[C@@H]2[C@@H](/C=C(\C)C=NOCCC)C2(C)C)C1=O [present compound (4), 2,5-dioxo-3-(2-propynyl)imidazolidin-1-ylmethyl (1R)-trans-2,2-dimethyl-3-[(E)-2-methyl-3-propoxyimino-1-propenyl]cyclopropanecarboxylate] | ≥ 70%
3 | C#CCN1CC(=O)N(COC(=O)[C@@H]2[C@@H](/C=C(\C)C=NOCC=C)C2(C)C)C1=O [present compound (3), 2,5-dioxo-3-(2-propynyl)imidazolidin-1-ylmethyl (1R)-trans-3-[(E)-3-(2-propenyloxyimino)-2-methyl-1-propenyl]-2,2-dimethylcyclopropanecarboxylate] | ≥ 70%
4 | C#CCON=C/C(C)=C/[C@@H]1[C@@H](C(=O)OCN2C(=O)CN(CC#C)C2=O)C1(C)C [present compound (6), 2,5-dioxo-3-(2-propynyl)imidazolidin-1-ylmethyl (1R)-trans-2,2-dimethyl-3-[(E)-2-methyl-3-(2-propynyloxyimino)-1-propenyl]cyclopropanecarboxylate] | ≥ 70%
5 | C#CCN1CC(=O)N(COC(=O)[C@@H]2[C@@H](/C=C(\C)C=NOCC)C2(C)C)C1=O [present compound (2), 2,5-dioxo-3-(2-propynyl)imidazolidin-1-ylmethyl (1R)-trans-3-[(E)-3-ethoxyimino-2-methyl-1-propenyl]-2,2-dimethylcyclopropanecarboxylate] | ≥ 70%
6 | C#CCN1CC(=O)N(COC(=O)[C@@H]2[C@@H](/C=C(\C)C=NOC)C2(C)C)C1=O [present compound (1), 2,5-dioxo-3-(2-propynyl)imidazolidin-1-ylmethyl (1R)-trans-3-[(E)-3-methoxyimino-2-methyl-1-propenyl]-2,2-dimethylcyclopropanecarboxylate] | ≥ 70%
